# Some of the results follow.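 Rule for the calls: active = dose-dependent thermal stabilisation significant by F-test of dose-response against flat model at 10% FDR; inactive = not significant.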
# The chains behind the UniProt entries cited, without tags or fusion partners. Where a name states a change or a piece, a line headed by the entry shows the natural chain unless it says otherwise.
# UniProt Q6NYC8: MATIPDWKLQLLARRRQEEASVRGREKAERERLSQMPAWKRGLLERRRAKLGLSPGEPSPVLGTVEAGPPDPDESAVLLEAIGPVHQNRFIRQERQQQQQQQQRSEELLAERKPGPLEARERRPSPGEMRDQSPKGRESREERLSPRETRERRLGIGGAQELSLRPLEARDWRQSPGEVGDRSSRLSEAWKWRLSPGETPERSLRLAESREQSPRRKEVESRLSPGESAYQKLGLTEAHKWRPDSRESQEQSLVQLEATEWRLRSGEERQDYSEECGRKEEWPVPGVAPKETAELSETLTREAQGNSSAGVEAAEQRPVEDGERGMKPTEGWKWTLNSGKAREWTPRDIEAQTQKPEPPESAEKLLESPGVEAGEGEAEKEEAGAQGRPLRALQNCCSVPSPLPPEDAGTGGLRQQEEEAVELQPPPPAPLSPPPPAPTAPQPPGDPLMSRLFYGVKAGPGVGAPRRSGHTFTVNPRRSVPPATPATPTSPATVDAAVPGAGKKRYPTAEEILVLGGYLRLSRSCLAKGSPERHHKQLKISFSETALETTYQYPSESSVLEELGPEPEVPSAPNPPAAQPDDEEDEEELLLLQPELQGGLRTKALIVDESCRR
# UniProt Q9UKF7: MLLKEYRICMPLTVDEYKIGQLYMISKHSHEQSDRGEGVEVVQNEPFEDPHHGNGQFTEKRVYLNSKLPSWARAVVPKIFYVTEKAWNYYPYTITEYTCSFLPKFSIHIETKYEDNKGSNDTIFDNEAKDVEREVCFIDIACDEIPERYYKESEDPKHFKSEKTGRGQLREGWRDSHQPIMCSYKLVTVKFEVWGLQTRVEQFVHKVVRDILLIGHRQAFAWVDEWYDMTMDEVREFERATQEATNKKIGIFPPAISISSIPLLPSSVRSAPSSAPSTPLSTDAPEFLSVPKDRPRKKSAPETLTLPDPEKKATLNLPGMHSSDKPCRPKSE
# UniProt O60828: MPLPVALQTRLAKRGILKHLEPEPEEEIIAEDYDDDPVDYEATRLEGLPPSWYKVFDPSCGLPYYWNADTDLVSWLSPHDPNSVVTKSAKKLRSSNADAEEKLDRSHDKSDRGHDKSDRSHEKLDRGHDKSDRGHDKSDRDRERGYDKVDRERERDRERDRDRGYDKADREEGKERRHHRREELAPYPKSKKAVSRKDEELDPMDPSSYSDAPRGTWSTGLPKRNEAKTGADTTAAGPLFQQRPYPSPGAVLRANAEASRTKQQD
# UniProt O60927: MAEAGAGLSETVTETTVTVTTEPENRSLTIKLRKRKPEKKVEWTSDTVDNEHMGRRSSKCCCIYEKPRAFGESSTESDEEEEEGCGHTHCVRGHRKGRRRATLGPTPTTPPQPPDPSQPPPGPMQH
# UniProt Q9BY77: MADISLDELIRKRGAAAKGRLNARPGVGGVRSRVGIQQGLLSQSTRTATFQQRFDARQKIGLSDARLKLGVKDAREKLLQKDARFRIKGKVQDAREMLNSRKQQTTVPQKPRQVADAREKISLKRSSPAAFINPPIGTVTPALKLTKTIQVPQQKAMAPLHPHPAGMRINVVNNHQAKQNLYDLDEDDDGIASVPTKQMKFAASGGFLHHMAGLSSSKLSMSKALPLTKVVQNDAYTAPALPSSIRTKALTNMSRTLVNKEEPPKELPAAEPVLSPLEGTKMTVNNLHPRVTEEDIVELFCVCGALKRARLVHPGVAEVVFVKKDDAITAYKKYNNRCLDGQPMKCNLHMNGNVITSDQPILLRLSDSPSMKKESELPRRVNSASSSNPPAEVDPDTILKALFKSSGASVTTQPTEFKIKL
# UniProt Q9UKL6: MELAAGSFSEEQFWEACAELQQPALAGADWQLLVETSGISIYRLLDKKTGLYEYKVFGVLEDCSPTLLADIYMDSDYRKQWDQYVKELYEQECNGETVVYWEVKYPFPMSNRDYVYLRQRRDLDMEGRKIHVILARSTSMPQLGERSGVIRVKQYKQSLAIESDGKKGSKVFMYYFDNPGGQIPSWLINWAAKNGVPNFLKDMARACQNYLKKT
# UniProt Q96S99: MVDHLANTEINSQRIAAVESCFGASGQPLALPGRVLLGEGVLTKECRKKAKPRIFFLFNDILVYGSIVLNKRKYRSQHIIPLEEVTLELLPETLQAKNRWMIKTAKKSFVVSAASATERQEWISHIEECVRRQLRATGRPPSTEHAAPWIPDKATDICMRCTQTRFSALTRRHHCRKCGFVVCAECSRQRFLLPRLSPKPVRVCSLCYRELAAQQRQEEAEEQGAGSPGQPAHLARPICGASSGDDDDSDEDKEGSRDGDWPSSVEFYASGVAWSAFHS
# UniProt Q15111: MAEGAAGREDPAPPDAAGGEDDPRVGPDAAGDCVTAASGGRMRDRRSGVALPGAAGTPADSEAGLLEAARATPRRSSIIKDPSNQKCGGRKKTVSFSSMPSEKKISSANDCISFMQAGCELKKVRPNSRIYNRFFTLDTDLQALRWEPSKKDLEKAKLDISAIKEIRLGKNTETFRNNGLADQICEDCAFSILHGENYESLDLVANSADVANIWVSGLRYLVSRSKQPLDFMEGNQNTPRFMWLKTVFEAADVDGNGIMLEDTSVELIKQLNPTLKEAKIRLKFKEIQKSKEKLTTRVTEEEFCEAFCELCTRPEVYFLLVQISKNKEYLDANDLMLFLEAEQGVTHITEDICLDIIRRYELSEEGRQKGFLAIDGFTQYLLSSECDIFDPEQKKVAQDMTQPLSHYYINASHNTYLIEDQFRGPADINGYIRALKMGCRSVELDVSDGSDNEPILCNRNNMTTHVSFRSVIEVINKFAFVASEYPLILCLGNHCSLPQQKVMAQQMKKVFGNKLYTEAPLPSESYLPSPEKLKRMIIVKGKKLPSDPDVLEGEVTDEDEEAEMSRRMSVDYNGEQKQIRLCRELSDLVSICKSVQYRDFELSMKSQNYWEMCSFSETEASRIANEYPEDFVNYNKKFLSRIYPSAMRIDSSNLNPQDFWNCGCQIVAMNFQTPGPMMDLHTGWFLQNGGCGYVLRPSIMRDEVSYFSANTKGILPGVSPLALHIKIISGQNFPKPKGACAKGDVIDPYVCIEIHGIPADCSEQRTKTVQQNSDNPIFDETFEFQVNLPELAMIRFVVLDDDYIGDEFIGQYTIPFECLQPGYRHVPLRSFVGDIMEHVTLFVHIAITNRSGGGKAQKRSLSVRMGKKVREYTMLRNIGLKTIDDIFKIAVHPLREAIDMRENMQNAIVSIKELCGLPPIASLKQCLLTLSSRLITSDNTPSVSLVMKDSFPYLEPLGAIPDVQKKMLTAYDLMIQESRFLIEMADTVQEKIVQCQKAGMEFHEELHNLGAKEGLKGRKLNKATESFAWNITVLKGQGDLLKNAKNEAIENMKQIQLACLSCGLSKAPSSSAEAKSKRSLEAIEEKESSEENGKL
# UniProt Q6NSJ2: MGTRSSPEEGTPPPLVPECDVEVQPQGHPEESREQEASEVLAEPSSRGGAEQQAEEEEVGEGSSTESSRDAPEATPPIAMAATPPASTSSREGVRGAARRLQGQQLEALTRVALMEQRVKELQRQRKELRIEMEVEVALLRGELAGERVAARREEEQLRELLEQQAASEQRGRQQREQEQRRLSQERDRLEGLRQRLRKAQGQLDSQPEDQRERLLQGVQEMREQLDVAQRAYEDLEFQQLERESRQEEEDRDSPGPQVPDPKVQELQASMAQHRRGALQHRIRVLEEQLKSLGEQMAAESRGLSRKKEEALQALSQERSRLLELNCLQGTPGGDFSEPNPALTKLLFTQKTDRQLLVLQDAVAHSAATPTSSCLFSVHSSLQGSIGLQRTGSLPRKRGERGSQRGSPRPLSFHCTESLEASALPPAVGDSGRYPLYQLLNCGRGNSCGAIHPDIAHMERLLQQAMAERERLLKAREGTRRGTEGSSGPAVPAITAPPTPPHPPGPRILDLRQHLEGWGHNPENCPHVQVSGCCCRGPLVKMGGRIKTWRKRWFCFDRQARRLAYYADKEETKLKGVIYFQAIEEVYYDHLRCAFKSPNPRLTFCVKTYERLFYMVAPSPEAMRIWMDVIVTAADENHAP
# UniProt P62140, whole entry: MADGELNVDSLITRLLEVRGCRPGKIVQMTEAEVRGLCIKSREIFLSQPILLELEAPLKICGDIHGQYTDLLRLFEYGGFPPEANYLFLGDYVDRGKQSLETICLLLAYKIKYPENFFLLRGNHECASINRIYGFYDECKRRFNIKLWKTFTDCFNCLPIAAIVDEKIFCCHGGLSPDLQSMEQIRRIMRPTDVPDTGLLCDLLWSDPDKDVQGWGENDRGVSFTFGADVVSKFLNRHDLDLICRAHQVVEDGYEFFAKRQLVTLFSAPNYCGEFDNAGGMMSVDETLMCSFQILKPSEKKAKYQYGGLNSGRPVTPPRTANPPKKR
# UniProt O75145: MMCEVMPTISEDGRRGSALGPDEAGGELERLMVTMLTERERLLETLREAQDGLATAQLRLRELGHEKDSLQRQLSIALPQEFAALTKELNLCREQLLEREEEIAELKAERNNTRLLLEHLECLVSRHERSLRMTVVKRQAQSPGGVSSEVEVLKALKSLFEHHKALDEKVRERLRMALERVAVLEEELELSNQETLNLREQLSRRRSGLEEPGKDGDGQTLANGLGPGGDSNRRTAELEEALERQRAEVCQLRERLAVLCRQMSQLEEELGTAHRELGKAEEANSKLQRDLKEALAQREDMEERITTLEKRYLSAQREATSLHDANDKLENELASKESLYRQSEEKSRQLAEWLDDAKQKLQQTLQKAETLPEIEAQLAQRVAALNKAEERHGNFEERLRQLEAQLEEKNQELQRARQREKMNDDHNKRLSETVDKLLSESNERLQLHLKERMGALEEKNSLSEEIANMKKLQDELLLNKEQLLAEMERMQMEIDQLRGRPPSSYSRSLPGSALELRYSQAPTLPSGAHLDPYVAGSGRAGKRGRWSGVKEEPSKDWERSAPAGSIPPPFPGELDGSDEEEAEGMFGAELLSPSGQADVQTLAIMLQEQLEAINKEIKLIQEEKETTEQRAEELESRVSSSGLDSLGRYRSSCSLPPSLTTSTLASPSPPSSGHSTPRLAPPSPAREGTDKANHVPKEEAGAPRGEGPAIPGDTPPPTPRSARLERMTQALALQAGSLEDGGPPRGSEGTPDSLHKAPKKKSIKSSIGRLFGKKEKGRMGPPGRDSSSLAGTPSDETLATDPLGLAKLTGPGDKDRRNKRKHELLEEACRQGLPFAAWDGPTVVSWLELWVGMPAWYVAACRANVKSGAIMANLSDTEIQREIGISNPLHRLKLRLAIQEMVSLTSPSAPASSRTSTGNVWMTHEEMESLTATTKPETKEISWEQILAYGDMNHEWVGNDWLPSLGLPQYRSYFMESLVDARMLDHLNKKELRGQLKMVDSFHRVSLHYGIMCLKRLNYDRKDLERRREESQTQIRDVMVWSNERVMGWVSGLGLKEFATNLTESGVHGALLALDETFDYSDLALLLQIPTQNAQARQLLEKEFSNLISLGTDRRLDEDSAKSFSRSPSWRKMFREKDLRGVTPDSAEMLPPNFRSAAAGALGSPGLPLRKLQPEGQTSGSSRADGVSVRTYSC
# UniProt P63098, whole entry, looked up: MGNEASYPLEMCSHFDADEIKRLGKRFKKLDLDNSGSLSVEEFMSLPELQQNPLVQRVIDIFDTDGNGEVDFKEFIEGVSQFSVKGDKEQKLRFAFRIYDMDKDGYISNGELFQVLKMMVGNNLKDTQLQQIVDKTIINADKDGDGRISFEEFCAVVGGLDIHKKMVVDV
# UniProt O75439: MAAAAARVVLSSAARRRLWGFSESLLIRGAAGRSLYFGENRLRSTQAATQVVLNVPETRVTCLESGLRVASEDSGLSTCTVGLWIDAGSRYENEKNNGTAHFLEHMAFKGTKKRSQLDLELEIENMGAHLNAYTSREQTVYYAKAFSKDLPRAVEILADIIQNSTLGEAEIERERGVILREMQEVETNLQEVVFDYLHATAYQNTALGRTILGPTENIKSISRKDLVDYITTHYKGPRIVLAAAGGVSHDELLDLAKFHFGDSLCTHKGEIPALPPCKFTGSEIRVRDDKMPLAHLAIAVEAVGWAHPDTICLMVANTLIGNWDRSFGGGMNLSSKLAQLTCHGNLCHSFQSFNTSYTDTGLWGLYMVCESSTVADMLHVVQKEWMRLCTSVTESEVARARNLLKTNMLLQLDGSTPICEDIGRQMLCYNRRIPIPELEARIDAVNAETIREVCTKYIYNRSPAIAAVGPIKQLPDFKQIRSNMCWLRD
# UniProt Q9NUG6, whole entry: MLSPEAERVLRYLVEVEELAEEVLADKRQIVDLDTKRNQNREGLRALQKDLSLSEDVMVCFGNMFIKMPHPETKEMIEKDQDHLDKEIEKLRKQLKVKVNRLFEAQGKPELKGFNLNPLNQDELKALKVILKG
# UniProt P48739: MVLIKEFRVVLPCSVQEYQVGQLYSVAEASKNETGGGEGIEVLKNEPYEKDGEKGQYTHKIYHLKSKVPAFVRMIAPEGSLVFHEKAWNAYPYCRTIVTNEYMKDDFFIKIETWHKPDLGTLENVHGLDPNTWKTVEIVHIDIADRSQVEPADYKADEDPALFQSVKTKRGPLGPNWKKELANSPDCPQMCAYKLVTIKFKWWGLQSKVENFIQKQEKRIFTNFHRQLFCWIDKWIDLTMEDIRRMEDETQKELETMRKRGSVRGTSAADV
# Compound: Nc1nc2c(ncn2[C@@H]2O[C@H](COP(=O)(O)OP(=O)(O)OP(=O)(O)O)[C@@H](O)[C@H]2O)c(=O)[nH]1
# Assay: dose-dependent thermal stabilisation call (2D-TPP, DLPTP, 10% FDR) (binary (1 = stabilised)); higher = stabilised by the compound
# Settings: system: Jurkat gel-filtered lysate; concentration range 1-500 µM
row,Target,dose-dependent thermal stabilisation call
1,PPP2R5D (UniProt Q14738),active: 1
2,PDCD4 (UniProt Q53EL6),inactive: 0
3,PPP1R18 (UniProt Q6NYC8),inactive: 0
4,PITPNC1 (UniProt Q9UKF7),inactive: 0
5,PDS5B (UniProt Q9NTI5),inactive: 0
6,PQBP1 (UniProt O60828),inactive: 0
7,PELO (UniProt Q9BRX2),active: 1
8,PNPO (UniProt Q9NVS9),inactive: 0
9,PPP1R11 (UniProt O60927),inactive: 0
10,PPIP5K2 (UniProt O43314),active: 1
11,POLDIP3 (UniProt Q9BY77),inactive: 0
12,PHKG2 (UniProt P15735),inactive: 0
13,PCTP (UniProt Q9UKL6),active: 1
14,POLR2A (UniProt P24928),active: 1
15,PLEKHF1 (UniProt Q96S99),active: 1
16,PLCL2 (UniProt Q9UPR0),inactive: 0
17,PLCL1 (UniProt Q15111),inactive: 0
18,PDAP1 (UniProt Q13442),inactive: 0

# Taken from above:
# Entry of PLCL1 (UniProt Q15111) under dose-dependent thermal stabilisation call: inactive: 0
# Entry of PDCD4 (UniProt Q53EL6) under dose-dependent thermal stabilisation call: inactive: 0

# The list continues:

row,Target,dose-dependent thermal stabilisation call
1,PHLDB3 (UniProt Q6NSJ2),inactive: 0
2,PER1 (UniProt O15534),inactive: 0
3,POGZ (UniProt Q7Z3K3),inactive: 0
4,PPP1CB (UniProt P62140),inactive: 0
5,PHF21A (UniProt Q96BD5),inactive: 0
6,PEA15 (UniProt Q15121),inactive: 0
7,PPME1 (UniProt Q9Y570),inactive: 0
8,PITRM1 (UniProt Q5JRX3),inactive: 0
9,PPFIA1 (UniProt Q13136),inactive: 0
10,PPFIA3 (UniProt O75145),inactive: 0
11,POLD1 (UniProt P28340),inactive: 0
12,PPP3R1 (UniProt P63098),inactive: 0
13,PMPCB (UniProt O75439),inactive: 0
14,PDRG1 (UniProt Q9NUG6),inactive: 0
15,PIP4K2A (UniProt P48426),inactive: 0
16,PPP3CA (UniProt Q08209),inactive: 0
17,PPIL2 (UniProt Q13356),active: 1
18,PITPNB (UniProt P48739),inactive: 0
